According to article PMC9508819, “Rbp95 binds to 25S rRNA helix H95 and cooperates with the Npa1 complex during early pre-60S particle maturation”:
Results are given in words; binding and its absence hold for the method and conditions named. In cells and extracts the contact can be indirect. Here binding means that the protein was enriched with, or labelled near, the bait; the list need not be complete. Blank lines part the entries; values can stand above or below the molecule they belong to.

Amino acid sequences for entries named in this document (tags omitted).
UniProt P34241: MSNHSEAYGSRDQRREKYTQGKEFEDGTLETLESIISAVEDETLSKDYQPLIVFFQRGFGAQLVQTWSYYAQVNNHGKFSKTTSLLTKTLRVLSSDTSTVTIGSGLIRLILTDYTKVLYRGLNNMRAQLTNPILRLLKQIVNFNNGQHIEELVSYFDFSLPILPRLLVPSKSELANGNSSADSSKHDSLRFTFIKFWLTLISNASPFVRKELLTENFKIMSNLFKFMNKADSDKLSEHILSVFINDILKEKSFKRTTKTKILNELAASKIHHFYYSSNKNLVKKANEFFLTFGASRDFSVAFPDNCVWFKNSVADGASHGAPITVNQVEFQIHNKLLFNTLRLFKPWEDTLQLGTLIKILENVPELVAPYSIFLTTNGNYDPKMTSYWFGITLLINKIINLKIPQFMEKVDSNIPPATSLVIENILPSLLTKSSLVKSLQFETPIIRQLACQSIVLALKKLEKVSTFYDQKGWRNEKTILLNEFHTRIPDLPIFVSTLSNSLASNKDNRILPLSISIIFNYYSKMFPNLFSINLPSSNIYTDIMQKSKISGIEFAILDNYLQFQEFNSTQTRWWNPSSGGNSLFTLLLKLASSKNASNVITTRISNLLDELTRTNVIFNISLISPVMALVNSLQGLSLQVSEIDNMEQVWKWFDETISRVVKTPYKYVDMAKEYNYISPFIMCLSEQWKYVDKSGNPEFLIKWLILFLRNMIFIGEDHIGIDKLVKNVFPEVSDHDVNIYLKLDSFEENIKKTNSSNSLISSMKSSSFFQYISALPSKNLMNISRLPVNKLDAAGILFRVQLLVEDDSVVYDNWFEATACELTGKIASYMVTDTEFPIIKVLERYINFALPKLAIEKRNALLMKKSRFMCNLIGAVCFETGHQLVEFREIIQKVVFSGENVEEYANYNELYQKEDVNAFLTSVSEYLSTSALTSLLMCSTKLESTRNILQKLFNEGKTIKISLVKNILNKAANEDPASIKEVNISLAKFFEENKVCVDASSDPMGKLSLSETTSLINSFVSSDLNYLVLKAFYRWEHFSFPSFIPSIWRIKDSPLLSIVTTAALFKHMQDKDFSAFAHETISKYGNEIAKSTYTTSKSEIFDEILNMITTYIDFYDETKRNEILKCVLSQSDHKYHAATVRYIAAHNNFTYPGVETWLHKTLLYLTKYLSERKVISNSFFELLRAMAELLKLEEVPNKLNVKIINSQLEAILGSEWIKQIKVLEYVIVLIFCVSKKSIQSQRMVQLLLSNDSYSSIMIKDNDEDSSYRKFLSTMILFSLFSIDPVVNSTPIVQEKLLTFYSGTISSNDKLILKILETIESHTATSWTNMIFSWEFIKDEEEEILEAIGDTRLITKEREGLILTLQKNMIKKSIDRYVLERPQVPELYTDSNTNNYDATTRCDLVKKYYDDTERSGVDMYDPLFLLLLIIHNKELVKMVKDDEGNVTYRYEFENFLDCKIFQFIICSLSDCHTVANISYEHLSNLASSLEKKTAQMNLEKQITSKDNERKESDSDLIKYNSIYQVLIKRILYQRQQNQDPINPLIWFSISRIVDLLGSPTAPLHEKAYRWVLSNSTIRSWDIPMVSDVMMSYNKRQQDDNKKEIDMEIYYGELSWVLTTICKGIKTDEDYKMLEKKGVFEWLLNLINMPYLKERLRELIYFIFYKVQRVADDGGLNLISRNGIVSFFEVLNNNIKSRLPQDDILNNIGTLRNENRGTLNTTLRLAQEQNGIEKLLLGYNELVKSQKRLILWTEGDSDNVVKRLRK

Legend:
[1] = molecular target: T1, Rbp95-TAP (S. cerevisiae) (UniProt P25617); test: affinity purification with mass spectrometry; tandem-affinity purification from yeast lysate, elution from Calmodulin Sepharose with 0.8% ammonium hydroxide; label-free semi-quantitative LC-MS/MS (LFQ, MaxQuant); for Figure 8A, B from wild-type and Δrbp95 strains
T1 sequence: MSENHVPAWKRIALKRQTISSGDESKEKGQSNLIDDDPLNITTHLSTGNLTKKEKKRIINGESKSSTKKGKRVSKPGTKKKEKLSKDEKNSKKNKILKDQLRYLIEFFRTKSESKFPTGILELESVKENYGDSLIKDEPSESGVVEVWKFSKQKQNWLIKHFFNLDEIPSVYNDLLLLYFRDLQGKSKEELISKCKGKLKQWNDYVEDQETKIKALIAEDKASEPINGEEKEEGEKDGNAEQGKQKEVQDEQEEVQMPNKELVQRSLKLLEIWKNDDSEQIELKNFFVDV

[2] = molecular target: T2, Noc2-TAP (S. cerevisiae) (UniProt P39744); test: as above
T2 sequence: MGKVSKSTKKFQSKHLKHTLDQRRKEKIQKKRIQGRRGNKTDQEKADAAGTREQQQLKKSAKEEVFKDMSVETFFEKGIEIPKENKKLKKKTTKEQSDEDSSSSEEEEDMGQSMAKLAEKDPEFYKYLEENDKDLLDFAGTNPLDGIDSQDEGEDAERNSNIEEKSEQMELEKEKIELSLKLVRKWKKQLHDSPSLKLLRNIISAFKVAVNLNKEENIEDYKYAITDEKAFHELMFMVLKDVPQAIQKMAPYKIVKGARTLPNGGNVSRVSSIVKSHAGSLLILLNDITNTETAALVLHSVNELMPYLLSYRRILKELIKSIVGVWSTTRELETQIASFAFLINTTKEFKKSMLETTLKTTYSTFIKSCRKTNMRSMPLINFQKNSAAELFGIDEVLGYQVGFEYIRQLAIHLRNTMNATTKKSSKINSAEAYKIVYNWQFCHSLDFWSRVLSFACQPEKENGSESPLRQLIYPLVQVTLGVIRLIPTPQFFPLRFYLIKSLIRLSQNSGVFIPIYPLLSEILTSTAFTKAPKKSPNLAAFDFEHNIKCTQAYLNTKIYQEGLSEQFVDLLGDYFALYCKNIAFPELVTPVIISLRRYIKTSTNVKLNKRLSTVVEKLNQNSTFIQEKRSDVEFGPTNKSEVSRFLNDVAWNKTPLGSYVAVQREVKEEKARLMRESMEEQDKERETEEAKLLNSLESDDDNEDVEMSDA

[3] = molecular target: T3, Rbp95-TurboID (S. cerevisiae) (UniProt P25617); test: proximity labelling; TurboID: C-terminally TurboID-tagged bait from the CUP1 promoter in yeast, 500 uM copper sulfate and biotin for 1 h; biotinylated proteins purified on streptavidin agarose, LC-MS/MS; enrichment against NLS-GFP-TurboID control
T3 sequence: T1 sequence

binding [1]: binds
binding [2]: binds
binding [3]: binds
Molecule: Npa1 (from UniProt P34241 1-1764)

binding [3]: binds
B5: Bms1 (protein, UniProt Q08965 1-1183)
chain: MEQSNKQHRKAKEKNTAKKKLHTQGHNAKAFAVAAPGKMARTMQRSSDVNERKLHVPMVDRTPEDDPPPFIVAVVGPPGTGKTTLIRSLVRRMTKSTLNDIQGPITVVSGKHRRLTFLECPADDLNAMIDIAKIADLVLLLIDGNFGFEMETMEFLNIAQHHGMPRVLGVATHLDLFKSQSTLRASKKRLKHRFWTEVYQGAKLFYLSGVINGRYPDREILNLSRFISVMKFRPLKWRNEHPYMLADRFTDLTHPELIETQGLQIDRKVAIYGYLHGTPLPSAPGTRVHIAGVGDFSVAQIEKLPDPCPTPFYQQKLDDFEREKMKEEAKANGEITTASTTRRRKRLDDKDKLIYAPMSDVGGVLMDKDAVYIDIGKKNEEPSFVPGQERGEGEKLMTGLQSVEQSIAEKFDGVGLQLFSNGTELHEVADHEGMDVESGEESIEDDEGKSKGRTSLRKPRIYGKPVQEEDADIDNLPSDEEPYTNDDDVQDSEPRMVEIDFNNTGEQGAEKLALETDSEFEESEDEFSWERTAANKLKKTESKKRTWNIGKLIYMDNISPEECIRRWRGEDDDSKDESDIEEDVDDDFFRKKDGTVTKEGNKDHAVDLEKFVPYFDTFEKLAKKWKSVDAIKERFLGAGILGNDNKTKSDSNEGGEELYGDFEDLEDGNPSEQAEDNSDKESEDEDENEDTNGDDDNSFTNFDAEEKKDLTMEQEREMNAAKKEKLRAQFEIEEGENFKEDDENNEYDTWYELQKAKISKQLEINNIEYQEMTPEQRQRIEGFKAGSYVRIVFEKVPMEFVKNFNPKFPIVMGGLLPTEIKFGIVKARLRRHRWHKKILKTNDPLVLSLGWRRFQTLPIYTTTDSRTRTRMLKYTPEHTYCNAAFYGPLCSPNTPFCGVQIVANSDTGNGFRIAATGIVEEIDVNIEIVKKLKLVGFPYKIFKNTAFIKDMFSSAMEVARFEGAQIKTVSGIRGEIKRALSKPEGHYRAAFEDKILMSDIVILRSWYPVRVKKFYNPVTSLLLKEKTEWKGLRLTGQIRAAMNLETPSNPDSAYHKIERVERHFNGLKVPKAVQKELPFKSQIHQMKPQKKKTYMAKRAVVLGGDEKKARSFIQKVLTISKAKDSKRKEQKASQRKERLKKLAKMEEEKSQRDKEKKKEYFAQNGKRTTMGGDDESRPRKMRR

More lines, now with the values behind:

B1: Dhr2 (enzyme, UniProt P36009 1-735)
chain: MAANSNSRVASNHTSKKQKVRRNIHPFTNNTRIKRASKIVKFNDSGEGDHVSDQRSNKENVLTYKSLKSRASDLLKMRETLPVYQHKREIMSYIESNPVTVLIGETGSGKSTQIPQFVLEKLYDTKKHGSIAVTQPRRVAAINLATRVAQEHGCKLGEQVGYSVRFDNTTTTRTRLKYLTDGMLLRELMMNSDLREYSVIVIDEAHERTVLTDLILGFLKSLIQGPRPDLRIIVMSATLQAEKFSEFFNNAPILFVEGRKFDVKQYYLKAPTDDIVDAVIRCCIQINQGEELGDILCFLPGQEEIDKAVTIMEKIAKYVSDEAPVPLIVPYPLYAALPAVQQSLVFAPIKGFKRKVVFSTNIAETSVTISGVKFVVDSGLRKVKVWRHQLGLATLLTVPISQASAMQRSGRAGRESEGKSFRLYCESDYVKLPKQSEPEIARSDVTSPVLMLKRYGVDDLLNWTWFENPGKEAIVMGLQELYELGALDTRGKITKRGQQMALLPLQPHLSSVLIKASEVGCLSQVIDIVSCLSVENLLLNPSPEERDEVNERRLSLCNAGKRYGDLIMLKELFDIYFYELGKSQDASSERNDWCKGLCISIRGFKNVIRVRDQLRVYCKRLFSSISEEDEESKKIGEDGELISKILKCFLTGFIKNTAIGMPDRSYRTVSTGEPISIHPSSMLFMNKSCPGIMYTEYVFTTKGYARNVSRIELSWLQEVVTNAAAVAKQKVSDSK
binding [3]: binds

B2: Rrp12 (protein, UniProt Q12754 1-1228)
chain: MDQDKVAFLLELEDKLAKIRSQVNSKLENQKHIAIILTAVEENIAGQATNDVSKNIVNYIISFMSLLDQAVDPSTHEIKDIQLASSSTYLLDLIFHYSPKVLLRSKFSEILTKIAPCITAEKANAPLIRAAIGCLESLLIAQDAQAWNNTYDLNVTPKRGLQGILELSLDVRPKVRKRALDAVHAVLLNPPVAPTAEHVAAVFVADFCDKQLAGILNDLSNLSNKQLKAQKTKEDINASVMRSLRLITSVVSTGQWPSSQIEPLCDVLLGVTKSSEQYLVSASFECFESMFKTMAETTISSGLAENKYLRVLDTIFALKPSNVDTLLTKSWIAVVIKGMSTYATHQPLKALRKIPGVFHIMCTYLASETPEVYQAASQCLISILSESVKDDLLLYTPSVDEKVFKNVDEIISQIAKTFIDFLSIRYSHCSREILKILVAAFNKFRYRSNPHFLKSLKIVDTWRVNEEQFMDLRNEIELVIGASISAMGPEMILAEAPLNLDNPSSERPGRAWLLPLIRDYTKNANLATFQNELAPYIKSFQSKFDKVPEESIQLRVFQTIVDQIWSTLPRFCELPMDLRESFTDEFASELSSLLYSEVELRTTICHALKVLAESNVSYAEESSSHNVLLLQRFPISEAQKNIEYLSTKSTNLLAVLFNVYTQTTPNARSYILETIDQYLKITSKEDLEKTFNNVCGLLKNSMNEESSGNVNKEKKKPQLTATLLDLIICMITYLPVSSYSALFSMFSLTVNSADALIQKRAYRIITKLSELKSGSTAVAQFISDIENVMVDSASSVQTSAKAARLTAIKTIVELLPLDHLDFIVRTVAEVILSTKDVNEKSRETAFDTLICMGRKMNEPNGIIKLFQIPGYDPTTPDQSSSISEFFKIISAGLIGESQHMVSSSITGYACLVFEFKNELDSGILMDIYDTIELYLTSNSREIVKSAIGFTKVCVLGLPEELMRPKVPELLLKLLRWSHEHTGHFKAKVKHIIERLIRRFGYDYIEANFPEEDRRLLTNIRKMRNRNKRKDEEVTTGVSDVAATKGSRFMSAFDEAVYGSDEENDNGSDQEENVAGGKMKNGAKQFIVESGDNPLDLLDSQTLAHISSTRPKKFNKNQNRARFNDDAFNFDSEGKLVVKGQPKPSTNVDDPLSAVTSGINAYLEAVKSGPVRGQRNKLKFRKNGKDSDEFGDDDDGEKDSRLMRGRVNQGNKIGKHNKKGPKFKSRKKL
binding [3]: binds

B3: Npa2 (protein, UniProt P47108 1-1174)
chain: MGDLTEELSIPDNAQDLSKLLRSTSTKPHQIAEIVSKFDKLETYFPKKEIFVLDLLIDRLNNGNLDDFKTSEHTWIIFTRLLDAINDPISIKKLLKKLKTVPVMIRTFFLWPKDKLLTRSVSFIKAFFAINDYLIVNFSVEESFQLLEHAINGLSSCPTTDFALSYLQDACNLTHVDNITTTDNKIATCYCKHMLLPSLRYFAQTKNSASSNQSFIRLSHFMGKFLLQPRIDYMKLNKKFVQENASEITDDMAYYYFATFVTFLSKDNFAQLEVIFTILGAKKPSLECRFLNLLSESKKTVSQEFLEALLLEMLASTDESGVLSLIPIILKLDIEVAIKHIFRLLELIQLENLNDPLFSSHIWDLIIQSHANARELSDFFAKINEYCSRKGPDSYFLINHPAYVKSITKQLFTLSSLQWKNLLQALLDQVNHDSTNRVPLYLIRICLEGLSEGASRATLDEVKPILSQVFTLESFNNSLQWDLKYHIMEVYDDIVPAEELEKIDYVLSSNIFDTTSADVEELFFYCFKLREYISFDLSDAKKKFMRHFEILDEERKSNLSYSVVSKFATLVNNNFTREQISSLIDSLLLNSTNLSSLLKNDDIFEETNITYALINKLASSYHQTFALEALIQIPIQCINKNVRVALINNLTCESFCLDSATRECLLHLLSSPTFKSNIETNFYELCEKTIMSPEMAISETGDEKKEIEDKISIFEKVWTNHLSQAKEPVSEKFLESGYDIVKQSMSLSNGDSKLIIAGFTIAKFLKPDNKHRDIQGMAISYAVKILENYSENFESETIPLFRISMSTLYKIITTGQGDISKHKSRILDIFSKIMLRYHSKKVYHAPEEQEMFLVHSLLTENKLEYIFAEYLNIEHTDKCDSALGFCLEESLKQGPDAFNRLLWNSAKSFSTISQPCAEKFVRVFIIMSKRIARDNNLGHHLFVIALLEAYTYCDIEKFGYKSYLLLFNAIKEFLVSKPWLFSQYCIEMLLPFCLKTLAFIVNHESTDEINEGFINIIEVIDHMLLVHRFKFSNRHHLFNSVLCQILEIIAIHDGTLCANSADAVARLITNYCEPYNVSNAQNGQKNNLSSKISLIKQSIRKNVLVVLTKYIQLSITTQFSLNIKKSLQPGIHAIFDILSQNELNQLNAFLDTPGKQYFKALYLQYKKVGKWRED
binding [1]: binds
binding [3]: binds

B4: Nsa2 (protein, UniProt P40078 1-261)
chain: MPQNDYIERHIKQHGKRLDHEERKRKREARESHKISERAQKLTGWKGKQFAKKRYAEKVSMRKKIKAHEQSKVKGSSKPLDTDGDALPTYLLDREQNNTAKAISSSIKQKRLEKADKFSVPLPKVRGISEEEMFKVIKTGKSRSKSWKRMITKHTFVGEGFTRRPVKMERIIRPSALRQKKANVTHPELGVTVFLPILAVKKNPQSPMYTQLGVLTKGTIIEVNVSELGMVTAGGKVVWGKYAQVTNEPDRDGCVNAVLLV
binding [1]: binds
binding [3]: binds

B6: Nop6 (protein, UniProt Q07623 1-225)
chain: MGSEEDKKLTKKQLKAQQFRKSKEEKDQEKDVKKEQAPEGKRPNSAAGNDGEEPVKKKRKTRRGRGGKGKNGKKGNRFIVFVGSLPRDITAVELQNHFKNSSPDQIRLRADKGIAFLEFDADKDRTGIQRRMDIALLQHGTLLKEKKINVELTVGGGGNSQERLEKLKNKNIKLDEERKERLTKMINDGNQKKIAKTTATAAQTSGTDNKPVPAGIHPDRAKLLK
binding [3]: binds
